From the supplement of paper PMC3334620
Whole data set: some 33,000 sequences, median “E-score (-0.5 to 0.5)” near -0.0059, cut for the highest 2% near 0.26. The list shows a part of the results.

Target: T1, Cin5 (UniProt P40917)
T1 sequence: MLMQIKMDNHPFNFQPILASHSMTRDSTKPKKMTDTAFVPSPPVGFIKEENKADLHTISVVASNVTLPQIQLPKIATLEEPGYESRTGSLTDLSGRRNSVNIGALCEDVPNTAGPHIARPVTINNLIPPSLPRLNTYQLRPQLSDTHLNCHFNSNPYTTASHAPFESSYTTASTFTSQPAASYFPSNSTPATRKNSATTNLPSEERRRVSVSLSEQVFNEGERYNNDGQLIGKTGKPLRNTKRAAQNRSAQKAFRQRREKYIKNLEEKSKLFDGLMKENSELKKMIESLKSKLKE
Test: PBM E-score (8-mer binding enrichment) (E-score (-0.5 to 0.5)); higher = stronger / more preferred TF binding
Details: protein concentration: 100 nM; construct: GST-full length
Procedure: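 Universal 'all 10-mer' protein binding microarrays (Agilent AMADID 015681) probed with GST-tagged S. cerevisiae TFs (full-length or DBD) made by in vitro transcription/translation (PURExpress), about 100-200 nM. Bound TF was detected with fluorescent anti-GST. Each ungapped 8-mer (which stands for itself and its reverse complement) is scored by the PBM enrichment score (E-score), a modified Wilcoxon-Mann-Whitney statistic from -0.5 to +0.5, computed with the Universal PBM Analysis Suite. Scale: above 0.35 generally sequence-specific binding.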

Sequence | PBM E-score
CCTACCTC | -0.139
GTCGGGAA | -0.0504
CCCCCGTA | -0.414
CGGGCAAG | -0.0454
CTACTGAA | -0.018
TACTTCAA | 0.175
CCATATTA | 0.169
TCCATGGA | 0.158
GAGATAGA | 0.0135
GGCCTCTA | -0.243
TAGTGTAA | 0.134
ATCAAGTG | 0.17
TATGCCCA | -0.0532
AAATGCAC | 0.0645
AGGCATGC | -0.0863
CCCATGTA | 0.00527
CGCGAGAC | -0.122
ACCTGCTG | 0.14
AAGGAAGA | -0.136
AAACCCGA | 0.185
AGGAGTTC | -0.0983
AACTTCAG | -0.0729
GGTTGAAA | -0.00909
AAGTGTAC | -0.0708
CGCAAACC | -0.00168

As a working copy, some entries already given:
Sequence | PBM E-score
TAGTGTAA | 0.134
ATCAAGTG | 0.17

The list continues:

Sequence | PBM E-score
GTGATTGA | 0.148
CCTCTAAG | -0.236
CTGGCCTC | -0.206
GGGCGTAA | -0.0611
ACTCGACT | -0.043
GACTTCTA | -0.233
AGGCAGAC | -0.247
CCTGAACA | -0.149
GAGCCCAC | -0.119
ACGGTGGA | -0.285
AGTGAAAT | 0.008
CCTAAGTC | -0.135
CGGGGGAC | -0.3
AATCTCCA | -0.105
CAAAGTAG | -0.0133
ACTATAGG | -0.0568
AGCTTATA | 0.191
ACTTCACC | -0.00883
CCCTGAGC | -0.00649
ACCATCAG | -0.113
CATTGGAA | 0.0547
GAAACTAA | 0.0253
GCTATGAA | 0.0794
AACACAAT | 0.14
GTCCAGTA | -0.0759

Part of the list above, tab-delimited:
Sequence	PBM E-score
CTGGCCTC	-0.206
GGGCGTAA	-0.0611
ACTCGACT	-0.043
GACTTCTA	-0.233
AGGCAGAC	-0.247
CCTGAACA	-0.149

Additional results

Sequence | PBM E-score
ATTGTACG | -0.0541
CTGCCCCA | 0.0616
ATCGGGTG | 0.138
ATACACGC | 0.0469
AAGGTATC | -0.0586
CTATGGTC | -0.023
CTGGCGTA | -0.295
AATCCGCA | 0.139
AATGTGCT | 0.134
TCCGGTCA | -0.0497
ACGCTTTC | -0.0241
CTGGCATC | -0.153
AGGGCCTA | -0.19
CAAACAAA | 0.12
AAGGGAGA | -0.224
TGGCTACA | 0.0221
CACCTTGC | -0.0615
GCTGCATA | 0.0524
CTCATCAC | -0.0246
GATCATGA | 0.159
ACCCCGAT | 0.155
AGCTTTCA | 0.0229
AATGGCCA | -0.0811
AGCGTCGA | 0.181
CAAACAGC | 0.12

Sequence | PBM E-score
GGTTGGAC | -0.0946
CGACGGTC | -0.28
AAGTGCTA | 0.0335
TCCACTAA | 0.0246
ACTCCTAA | 0.00319
CTGGGTAA | -0.0503
ATAACATA | 0.26
ACTGCGTA | -0.253
CGCCCGAG | -0.03
AAGGGCCA | -0.124
CGCGCAAA | 0.241
GGTGCGAA | 0.0226
TCGACACA | 0.0542
ATAGAGTA | 0.119
ACAAGCCG | -0.0858
GAACACGA | 0.0378
AAGATAGT | 0.163
GGTTCAAC | -0.0864
ATCTTATA | 0.223
ATTGACCG | 0.127
CCCAGATA | -0.0105
ACAGCCGC | -0.153
CAACGCGG | -0.106
ACCATTCA | 0.0437
ACTTTGTC | 0.035

Sequence | PBM E-score
CCAGCTCA | 0.0449
GGGGCGTA | -0.0418
CACTACCG | -0.2
CCGGCTGA | 0.107
TCGTACAA | 0.0773
AAGAAAAG | 0.056
CCAAGCCA | -0.132
GAAGGCCA | -0.179
AATAACAA | 0.182
CACTACTG | 0.03
AGCTAACT | -0.0235
ACAGTATC | 0.0811
CAAGATTC | 0.0363
ATATATGC | 0.175
GAATCAGA | 0.2
AGATAGAC | -0.0516
CTGCTTGA | -0.185
ACGCTTGG | -0.108
CGCGCATC | -0.134
ATCTGGGA | -0.149
CAAGGGCG | -0.219
CTCCTTCC | -0.14
ACGCAGAT | 0.0298
ATGAATAA | 0.142
AGGGAACT | -0.169

Sequence | PBM E-score
GCTATGGA | -0.01
GACGGACC | -0.0258
GGGTGACA | 0.0313
AGTCGGAA | 0.144
TCCAGCAA | -0.0121
AGCAGAAT | 0.181
CGGTTTAG | -0.0638
ACAAAGCC | -0.0329
AGGTTCGA | 0.181
AATGATTG | 0.205
TAAACACA | 0.0718
AGGATCCG | -0.123
ATGTCAAC | 0.0833
GCGTCGGA | -0.028
CCTATTCC | 0.0295
ATAAAAGA | 0.00942
GCTCTAAA | -0.109
AGATCGGG | -0.0481
AGGTTATC | -0.0169
CCGTCCAC | 0.0862
TCCTGAAA | -0.0642
AATGAAAA | 0.24
AATGGTGG | -0.0523
ACTGTCGG | -0.186
AGACTGTA | 0.0527

Sequence | PBM E-score
ATCACGTC | 0.186
GTGGCGCA | 0.0152
CTACGATA | 0.121
AAAAATGA | 0.155
CAACAAGG | 0.0656
CTGTGCAC | -0.214
AATGGGCA | 0.116
CGAAACCG | 0.064
CAACTATC | 0.0334
GCCACAGA | -0.199
CTCCATCA | -0.011
GGTGGCAC | -0.191
ATAAGGAG | -0.0313
CTCCTGTC | -0.203
GCCGTTAC | -0.0362
TCGCGAGA | 0.1
AGCTACGG | -0.0334
CCACCCAA | 0.14
AATAACGG | 0.159
GACGATGC | -0.128
GCAACACC | 0.0724
ACGCGCCA | -0.173
